Changes are numbered by the printed parent chain. These are yes or no findings as the source states them, for the method shown. Some entries that bind do so weakly or less than the wild type. Values belong to the binder of their own block, whether it stands above or below them.
Key:
[1] = target: human LILRB3 (ILT5/LIR3/CD85a) on cells (human) (UniProt O75022); test: flow cytometry on human monocyte-derived macrophages (A16 by the legend of FIG. 4A)
[2] = target: WT LILRB3 (all four extracellular domains) on transfected HEK293F cells (human) (UniProt O75022); test: domain mapping by flow cytometry on transfected HEK293F cells (told in the discussion)

The chains behind the UniProt entries cited, without tags or fusion partners. Residues count along the entry.
UniProt O75022, residues 24-631: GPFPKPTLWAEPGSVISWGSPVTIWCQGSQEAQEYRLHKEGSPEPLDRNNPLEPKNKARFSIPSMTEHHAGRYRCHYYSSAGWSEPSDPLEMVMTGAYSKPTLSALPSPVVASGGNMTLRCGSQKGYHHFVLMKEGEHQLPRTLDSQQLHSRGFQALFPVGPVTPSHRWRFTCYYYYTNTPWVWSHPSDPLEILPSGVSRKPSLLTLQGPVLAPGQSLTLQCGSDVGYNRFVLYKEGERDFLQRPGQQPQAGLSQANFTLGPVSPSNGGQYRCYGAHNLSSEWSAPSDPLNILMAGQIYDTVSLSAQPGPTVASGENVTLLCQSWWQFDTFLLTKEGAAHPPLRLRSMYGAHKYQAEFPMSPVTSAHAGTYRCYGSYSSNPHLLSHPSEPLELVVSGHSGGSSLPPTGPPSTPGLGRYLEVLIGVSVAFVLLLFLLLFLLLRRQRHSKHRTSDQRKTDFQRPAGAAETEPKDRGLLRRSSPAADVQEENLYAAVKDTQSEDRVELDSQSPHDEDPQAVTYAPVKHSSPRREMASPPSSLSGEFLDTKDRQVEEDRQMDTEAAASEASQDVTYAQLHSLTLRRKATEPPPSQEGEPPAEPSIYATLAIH

B1: LILRB3 mAb clone A16 (antibody, human IgG1, V domains shown)
VH: EVQLLESGGGLVQPGGSLRLSCAASGFTFSSYWMSWVRQAPGKGLEWVSRINTHGTNIDYADSVKGRFTISRDNSKNTLYLQMNSLRAEDTAVYYCVGVAGTGWFDPWGQGTLVTVSS
VL: QSVLTQPPSASGTPGQRVTISCTGSSSNIGAGYDVHWYQQLPGTAPKLLIYGNNNRPSGVPDRFSGSKSGTSASLAISGLRSEDEADYYCQSYDTSLSGSVFGGGTKLTVLG
notes: Fully human IgG1, full-length IgG; only variable domains tied to the clone; APC-labelled for staining of primary cells; deglycosylated in the T cell assay
binding [1]: binds

binding [2]: binds
B2: LILRB3 mAb clone A28 (antibody, human IgG1, V domains shown)
VH: EVQLLESGGGLVQPGGSLRLSCAASGFTFSSYSMNWVRQAPGKGLEWVANIKQDGTENYYVDSVEGRFTISRDNSKNTLYLQMNSLRAEDTAVYYCARDGDWGWGFDYWGQGTLVTVSS
VL: B1 VL with G52E, N55K, A73V, Q91A, S92A, Y93W, T95D, S100W
